The whole screen tested about 53,000 sequences, of which about 3,700 (7%) were called active.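 The calls were made as follows: active = gene knockdowns whose robust z-score for IL-1 alpha signal is at least 2 or at most -2, so actives lie on both sides; inactive = the rest.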 The list shows a part of the results.

The nature of the assay: Components of the Cytosolic LPS Sensing Pathway: Gene Identification via Genome-wide siRNA Screen.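 Also: robust z of the log signal after scaling to non-targeting control siRNA wells of the plate.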 The following applies: RAW264.7 macrophages, IL-1a HTRF, actives lie on both sides, screened at 100 nM (by protocol), cells primed 5 h with Pam3CSK4 first. Summed up: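 Supernatant IL-1a by HTRF from RAW264.7 cells primed with Pam3CSK4 (5 hours) and transfected with LipidA (24 hour) after 48h siRNA knockdown at 100 nM; cell viability checked with CellTiter-Glo.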
With GGUUUAUCACAACUACCGCTT against Tmem179, the z-score is inactive: 0.528.

On to GGUGUACGUGAACAACUCCTT against Kcnmb4, for which the z-score is inactive: -1.58.

As for GCUUUUACUGUACCUCUUCTT against Tmc4, the z-score is inactive: -1.05.

With GGAGAACCUGUGUAAGAUUTT against Rffl, the z-score is inactive: 1.94.

On to GGCUCAGCAGCAGAAACAATT against Txndc9, for which the z-score is inactive: -0.809.

Turning to GGCCAGAGAGGAGAACUAATT against Zfp202, the z-score is inactive: 1.77.

Regarding GGGUUCCUCAGAGACUGAGTT against Esrra, the z-score is inactive: 1.57.

Take GGCGACACAAUAAGACAGATT against Wdr19: the z-score was inactive: 0.648.

For GGUGUUGUUCACGAGGACCTT against Nop56, the z-score was inactive: -0.259.

On to CCUGUAGAUUCAAUUAGAGTT against Vkorc1l1, for which the z-score is inactive: -0.206.

Regarding GGGUAUUGAAUCAGGCAUCTT against Olfr628, the z-score was inactive: 0.852.

On to GGAGAACAUUGCUAAAUGUTT against Slc34a2, for which the z-score is inactive: -0.371.

GGUCCCUAGCACUAUUUUUTT against Hes6: the z-score was inactive: 1.04.

For GGGCUUUCUCAGAAAAGAATT against Olfr508, the z-score is inactive: -1.29.

GCCUGAAUUUUUGAGAACUTT against Ccdc88a: the z-score was inactive: -0.841.

Consider GGUUCAGCUUAUGGUAACUTT against Vps13a, for which the z-score was inactive: -1.38.

Take GGGUCUGUAUCAGCUUGGUTT against Olfr1402: the z-score is inactive: 1.26.

As to GGUAAAGCAGUACCUUUCUTT against Mitf, the z-score is active: 2.53.

With GGAGGCAGCAGUUAUUGUGTT against Ly6a, the z-score was inactive: -0.486.

Regarding GGUUGUUAUAGAAGCUAAUTT against Wnt5a, the z-score is inactive: 0.128.

As for GCUAACCUUUGAGUUAGUGTT against Tbc1d12, the z-score is inactive: 0.833.

As to GCCAUUUCAUUUCGGACUGTT against Dgkz, the z-score was inactive: 0.422.

For the sequence GGAUAUCCUACAGUUCUGGTT against Krt5, the z-score is inactive: -0.342.

GGUGUGCAGAAGAUCUUGCTT against Osbpl6: the z-score is inactive: 0.883.

Regarding GAAGAUUGGAUUUAAAGCCTT against Olfr667, the z-score was inactive: -0.891.

With GGAUCAACGAGGAUCAAGATT against Engase, the z-score was inactive: 0.927.

As to CGCAUCCGCUAGUAGCUUGTT against Fscn1, the z-score was inactive: 1.26.

For the sequence CCUCAUCAAUCAGCCUAUGTT against Olfr1178, the z-score is inactive: -1.83.

For the sequence GGCUUUUUGUUAAGGCAGCTT against Ap1ar, the z-score is inactive: 1.59.

Take CCGGAGUAACUCUCUAACATT against Apbb3: the z-score was inactive: -0.291.

Turning to GGCUGACUGGACAAUAAAGTT against Krt85, the z-score is inactive: -1.28.

With GGCUUCACCAUUUUCAUAATT against P2rx5, the z-score is inactive: 0.0911.

For GCGAAGACUUCUUCUACAUTT against Lzts1, the z-score is inactive: -0.93.

Take GGGAAACUUUGCCACCUUATT against Tspan4: the z-score is inactive: 1.24.

Regarding CCCUUGCCUCAAAGAUCUUTT against Tex48, the z-score is inactive: 0.633.

Regarding GCCUUUUUCAGACACUAAUTT against Ugt2b1, the z-score is inactive: -0.427.

As to GGACGAGAAGAUUGUCUGCTT against Rassf9, the z-score is inactive: 1.27.

With GGACGAUGAACAUUGUCCCTT against Gpr19, the z-score is inactive: 0.402.

GGGAUGUGCUUUCAGGCUGTT against AU040320: the z-score was inactive: 0.384.

For GCAUGCCUCCAAUAUGCUUTT against Vps35, the z-score was inactive: -0.302.

GCCUUAACUAGUUUGUGUCTT against Shh: the z-score was inactive: 0.315.

On to CGAAACGGAAGGUGGAGGUTT against Kat5, for which the z-score was inactive: -1.41.

With GGAAAGAGAAAACUUUAGCTT against Nme7, the z-score was inactive: -0.131.

GGAGAUGAUCUUCUGAAAUTT against Klra17: the z-score is inactive: 0.00645.

Turning to UCCUGUCUGGUUCCUUUUUTT against Mettl7a1, the z-score is inactive: 0.097.

As to GGUGGUUCUUUUAAAGUUUTT against Dlat, the z-score is inactive: 0.794.

In the case of GGACAUGGAGAACCUUUUUTT against Naxd, the z-score is inactive: -1.78.

As to GCUCUCAAAAGUCCUUAGCTT against Emsy, the z-score was inactive: -1.9.

On to GGGUACCUGUGGUUUUUGUTT against Hdhd5, for which the z-score was inactive: -0.481.

Regarding GGAAGAUGUGGCUUGUGUCTT against Ly6d, the z-score is inactive: 0.0724.

Regarding CCUAUAUGGUACCACACUCTT against Olfr31, the z-score is inactive: -1.56.

In the case of GCCCUUGAAGAUUUGAGGUTT against Cops8, the z-score is inactive: 0.00555.

As to GGACACACAGUGAUCAUAUTT against Fhl1, the z-score was inactive: -0.79.

With CGAUGACUAUUUUUCUUGATT against Sgtb, the z-score was inactive: -0.12.

Regarding GCACUAAAGAAUCUUUACATT against Tmtc1, the z-score was inactive: 1.19.

Consider GGUCCUGAAAAUCGCUCAGTT against Ctrb1, for which the z-score is inactive: -0.649.

Regarding GCAUUCCUUUCCAAAAGGATT against Rpl24, the z-score was inactive: -0.146.

GGAAACAAAUUGACUGUUATT against Trim61: the z-score was inactive: -0.26.

As for GGGAUGAGUUCUUGUAAAUTT against Unc50, the z-score was inactive: -1.32.

For the sequence GGAAAUUACAGAGACAAUUTT against Rbm3, the z-score is inactive: -0.262.

Take GGAAUGAAUUCAGAGCAUGTT against Map6: the z-score was inactive: 0.135.

Take CCAGGGACAAGAUUUAUCUTT against Pcdhgb4: the z-score is inactive: -0.445.

With GGUGUUUGUGGAAGAGGAATT against Stx19, the z-score is inactive: 0.0956.

CCUGCUAUACAUUGAACCCTT against Lhcgr: the z-score is active: 2.52.

As to “CCCUGCUUUCGGAAUUACATT against C030016D13Rik”, the z-score is inactive: 0.435.

Regarding GGCUGUCAUCUGGACAGAUTT against Slc5a6, the z-score is inactive: 0.389.

Take GGAAAGAAACUAAGGAAAATT against Arhgap15: the z-score was inactive: 0.628.

Consider GGAAGUGAGUUUUUCAGCUTT against Bcl6b, for which the z-score is inactive: -0.473.

On to GCUAAUUUGACAAAGACGGTT against Bfsp2, for which the z-score was inactive: 1.8.

With GCUUUAUAAUCGGCUCUCCTT against Zdhhc6, the z-score was inactive: 0.25.

GGAUCUUCGGGACACCUUUTT against Mylpf: the z-score is inactive: 1.08.

For GGAUAUUCUGUUUUAUGUCTT against Rnf214, the z-score is inactive: -0.595.

With CCGUGUCUUAGGUGAUCACTT against H2-DMb1, the z-score is inactive: 0.391.

Regarding GGUUCCGAUUCUGUGGCAGTT against Chrm5, the z-score is inactive: -1.03.

CCCAGGAGUCCGACUUUACTT against Kirrel2: the z-score is inactive: -0.138.

Take GGCAACAUUGCUGUCGUUCTT against Tmem144: the z-score was inactive: -1.98.

For the sequence CGUGGACCUAUCCCACAAUTT against Tsku, the z-score was inactive: 0.405.

In the case of CAUCUGUACUACAAACUAATT against Wfdc21, the z-score was inactive: 1.23.

In the case of GGCCCUCACUCGUAUAUUUTT against Rhot1, the z-score is inactive: 0.316.

As for CGAAAAAUCAGAUUCCUCCTT against Coil, the z-score was inactive: 0.873.

Regarding GGCAUGAUAGUGUAAUAACTT against Piga, the z-score is inactive: -0.488.

Regarding GGGUGAAAAGGUUUCUGUCTT against Lactb, the z-score was inactive: 0.892.

On to GGGUGAAUUCUGUCUAUGUTT against Far1, for which the z-score is inactive: 0.0586.

Regarding GUACAAGCCACUGGAUCUGTT against Smad6, the z-score is active: 5.56.

As to GGAAUGUUGGAAUCAAUUGTT against Gcm1, the z-score is active: 2.83.

With CCAUCAAACUAAGACAAUCTT against Csnka2ip, the z-score is inactive: -0.48.

In the case of GGUCAAAGACUCUUCUGAUTT against Rrp15, the z-score is inactive: -1.19.

On to GGACUGGCUCUGAAAAAAATT against Rpf1, for which the z-score was inactive: 1.41.

Consider GGAUAAGCUUAUCAGCGUGTT against Stim1, for which the z-score is inactive: -0.914.

Consider GGAAAGUUCAGAGGAGAGATT against Batf, for which the z-score is inactive: 0.285.

Consider GGACCUAUACCUGAAGCCUTT against Eef2, for which the z-score is inactive: -1.54.

Take GGCCAAUAUGUGCUGGUAUTT against Ihh: the z-score was inactive: 0.186.

Consider GCUAAGACUCUUGAAUCAGTT against Zfp280d, for which the z-score was active: 3.72.

Consider CCUGCUAAAGGAAUGUCACTT against Cmc2, for which the z-score was inactive: -0.493.

For the sequence GCUACGGACCAUGUUCAAGTT against Nxpe4, the z-score was active: 2.93.

Regarding GAUUUUCCUGCUCACAAUGTT against Olfr1269, the z-score was inactive: 1.03.

With CCAUGAAUACCGAUGAGGATT against Kcnk9, the z-score is inactive: -0.186.

With GCUCUUAACAUUUAUGCUATT against Dph6, the z-score was inactive: -0.958.

Take GGUCAUCGGGUAAUUAAUCTT against Rad52: the z-score was inactive: -0.618.

For the sequence CCACGAUUGCCAAACGUGATT against Dido1, the z-score is inactive: -0.199.

With GGGUUCACCUUGACAUCCATT against Tmed9, the z-score was inactive: -1.66.

Turning to CGCGCUGCUCAAAAACUAUTT against Gh, the z-score is inactive: -0.0699.

Consider GGGUUUGGUCUCAUAUAAATT against Samd7, for which the z-score was inactive: -0.618.

On to GCAAUACCUCAGAAAAAGUTT against Tmem165, for which the z-score was active: -4.14.

For the sequence GCACCAUACCUACCACAUATT against Ppp4r3a, the z-score is inactive: 0.533.

As to GGAACUGGACAUCCAAACUTT against B3galt2, the z-score is inactive: -1.17.

Take GGUCACAUGGAGCUUUAUGTT against Il4ra: the z-score was inactive: -1.44.

(Values after PubChem BioAssay AID1508600 (Functional Genomics Laboratory (NCATS/FGL), 2020).)
